The values that follow come from patent US20240199730A1.

Protein sequences, listed by entry. Tags and fused reporters are not part of them. Lines headed by an entry give the natural chain unless they say otherwise; changes in a name come on top. Chains listed by the source or under a name are the forms on record and can include a tag or linker.
cyno TSLP (A0A7N9CAT7, form named): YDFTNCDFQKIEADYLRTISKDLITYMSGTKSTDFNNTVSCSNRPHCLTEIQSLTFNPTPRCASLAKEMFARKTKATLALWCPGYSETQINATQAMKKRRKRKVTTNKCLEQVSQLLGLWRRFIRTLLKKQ

Results are given in words; binding and its absence hold for the method and conditions named. Some entries that bind do so weakly or less than the wild type.

This assay has as its target Fab 1. The experiment in a line: KinExA solution equilibrium titration: cyno TSLP titrated into fixed Fab 1 (1000 pM filled diamonds, 40 pM open squares); free Fab 1 captured on hu TSLP-coated beads.

As to “cyno TSLP (from UniProt A0A7N9CAT7 29-159) (ligand)”, the binding entry is on record as “binds”.
